Reference: patent publication US20190167710A1 (UNIVERSITY OF PITTSBURGH OF THE COMMONWEALTH SYSTEM OF …, published 2019)
Results are given in words; binding and its absence hold for the method and conditions named. In cells and extracts the contact can be indirect. Some entries that bind do so weakly or less than the wild type.

Protein sequences, listed by entry. Tags and fused reporters are not part of them. Residues count along the entry.
UniProt Q9UM73, residues 19-1620: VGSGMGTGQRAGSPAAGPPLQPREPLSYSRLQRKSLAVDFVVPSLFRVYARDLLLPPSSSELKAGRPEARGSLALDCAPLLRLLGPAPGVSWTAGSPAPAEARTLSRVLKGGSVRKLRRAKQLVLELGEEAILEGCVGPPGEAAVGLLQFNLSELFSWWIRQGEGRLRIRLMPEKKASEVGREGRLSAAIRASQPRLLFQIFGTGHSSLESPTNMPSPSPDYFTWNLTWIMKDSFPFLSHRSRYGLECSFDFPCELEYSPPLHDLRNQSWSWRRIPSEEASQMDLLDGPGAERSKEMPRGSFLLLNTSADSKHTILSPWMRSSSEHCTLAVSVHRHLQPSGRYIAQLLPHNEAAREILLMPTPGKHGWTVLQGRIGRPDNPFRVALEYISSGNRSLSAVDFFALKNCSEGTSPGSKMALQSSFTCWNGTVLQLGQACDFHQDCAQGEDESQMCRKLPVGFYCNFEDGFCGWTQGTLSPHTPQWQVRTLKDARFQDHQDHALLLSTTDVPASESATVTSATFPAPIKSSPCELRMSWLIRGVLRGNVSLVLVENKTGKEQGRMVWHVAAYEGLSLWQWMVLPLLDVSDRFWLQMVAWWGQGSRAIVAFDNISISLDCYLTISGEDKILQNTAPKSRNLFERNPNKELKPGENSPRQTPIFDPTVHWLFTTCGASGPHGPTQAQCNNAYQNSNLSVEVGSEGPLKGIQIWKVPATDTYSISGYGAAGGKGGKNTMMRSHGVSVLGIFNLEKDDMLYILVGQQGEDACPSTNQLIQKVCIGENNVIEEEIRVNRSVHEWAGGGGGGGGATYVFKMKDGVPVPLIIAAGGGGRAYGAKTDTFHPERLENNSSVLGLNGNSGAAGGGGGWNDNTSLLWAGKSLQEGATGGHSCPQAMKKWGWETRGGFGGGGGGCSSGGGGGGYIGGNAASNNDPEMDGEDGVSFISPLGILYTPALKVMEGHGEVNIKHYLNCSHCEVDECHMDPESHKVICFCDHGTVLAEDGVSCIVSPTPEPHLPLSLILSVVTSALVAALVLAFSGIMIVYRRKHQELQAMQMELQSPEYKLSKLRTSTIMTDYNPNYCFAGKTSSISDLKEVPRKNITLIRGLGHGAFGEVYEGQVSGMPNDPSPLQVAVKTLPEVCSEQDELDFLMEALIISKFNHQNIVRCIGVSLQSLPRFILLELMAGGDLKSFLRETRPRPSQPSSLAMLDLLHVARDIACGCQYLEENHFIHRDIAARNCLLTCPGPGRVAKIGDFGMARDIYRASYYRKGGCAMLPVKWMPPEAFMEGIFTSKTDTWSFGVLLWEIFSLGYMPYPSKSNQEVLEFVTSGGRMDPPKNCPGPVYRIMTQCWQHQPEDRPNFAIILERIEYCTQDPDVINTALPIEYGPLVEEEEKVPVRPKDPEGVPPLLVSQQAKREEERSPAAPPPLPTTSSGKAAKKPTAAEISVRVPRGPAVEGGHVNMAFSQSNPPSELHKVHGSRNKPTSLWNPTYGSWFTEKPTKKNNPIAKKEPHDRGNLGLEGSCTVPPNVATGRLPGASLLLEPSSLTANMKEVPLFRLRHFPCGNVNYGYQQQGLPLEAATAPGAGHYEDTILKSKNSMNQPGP
UniProt P97793, residues 19-1621: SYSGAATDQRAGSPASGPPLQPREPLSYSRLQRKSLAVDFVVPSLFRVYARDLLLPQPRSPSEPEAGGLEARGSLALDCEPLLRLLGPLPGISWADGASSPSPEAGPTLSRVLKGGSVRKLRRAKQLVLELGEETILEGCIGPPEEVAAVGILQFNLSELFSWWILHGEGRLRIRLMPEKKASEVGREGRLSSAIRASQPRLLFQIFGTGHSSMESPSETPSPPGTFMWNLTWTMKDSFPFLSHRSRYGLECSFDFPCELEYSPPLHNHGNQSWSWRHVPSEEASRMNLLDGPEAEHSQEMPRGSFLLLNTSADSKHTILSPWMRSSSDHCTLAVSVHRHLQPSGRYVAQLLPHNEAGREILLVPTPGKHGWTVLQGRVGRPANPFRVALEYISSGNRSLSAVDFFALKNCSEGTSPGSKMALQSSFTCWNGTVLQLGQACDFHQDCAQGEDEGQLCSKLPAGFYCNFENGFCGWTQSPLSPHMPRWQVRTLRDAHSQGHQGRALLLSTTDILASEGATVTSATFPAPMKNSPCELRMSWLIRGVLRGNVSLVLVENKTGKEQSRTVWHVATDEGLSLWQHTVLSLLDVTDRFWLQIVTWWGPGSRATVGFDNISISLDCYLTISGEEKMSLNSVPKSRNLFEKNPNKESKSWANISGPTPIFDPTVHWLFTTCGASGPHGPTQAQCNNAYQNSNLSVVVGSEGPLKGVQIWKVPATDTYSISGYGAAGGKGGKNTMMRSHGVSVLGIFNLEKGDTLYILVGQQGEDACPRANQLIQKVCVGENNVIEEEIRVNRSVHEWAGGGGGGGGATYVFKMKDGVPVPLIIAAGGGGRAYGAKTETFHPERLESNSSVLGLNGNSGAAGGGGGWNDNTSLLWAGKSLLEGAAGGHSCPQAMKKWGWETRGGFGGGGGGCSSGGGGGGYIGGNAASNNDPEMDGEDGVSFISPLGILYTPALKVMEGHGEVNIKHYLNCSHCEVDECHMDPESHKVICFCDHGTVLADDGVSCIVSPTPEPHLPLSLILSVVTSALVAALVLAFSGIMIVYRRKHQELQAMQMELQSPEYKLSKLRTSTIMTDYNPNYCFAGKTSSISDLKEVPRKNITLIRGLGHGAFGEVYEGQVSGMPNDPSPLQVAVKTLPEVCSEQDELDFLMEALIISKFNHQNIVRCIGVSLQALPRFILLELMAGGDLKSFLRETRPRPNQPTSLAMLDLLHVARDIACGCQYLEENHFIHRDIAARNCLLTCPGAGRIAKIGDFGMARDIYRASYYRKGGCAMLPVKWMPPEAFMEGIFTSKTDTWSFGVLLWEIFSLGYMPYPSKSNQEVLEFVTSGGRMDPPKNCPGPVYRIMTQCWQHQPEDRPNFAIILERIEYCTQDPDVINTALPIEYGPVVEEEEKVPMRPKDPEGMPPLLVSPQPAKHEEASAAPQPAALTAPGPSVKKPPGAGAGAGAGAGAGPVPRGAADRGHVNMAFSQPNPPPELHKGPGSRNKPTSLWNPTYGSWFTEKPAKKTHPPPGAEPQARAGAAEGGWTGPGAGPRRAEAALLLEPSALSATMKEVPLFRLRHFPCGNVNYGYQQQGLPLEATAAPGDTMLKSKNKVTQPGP

Legend:
[1] = target: epidermal growth factor receptor (EGFR), human, endogenous in THP1 cells (human) (UniProt P00533); experiment: co-immunoprecipitation from THP1 lysates
[2] = target: epidermal growth factor receptor (EGFR), human, endogenous in THP1 cells (human) (UniProt P00533); experiment: co-immunoprecipitation from THP1 lysates (FIG. 12)
[3] = target: epidermal growth factor receptor (EGFR), mouse, endogenous in iBMDMs (mouse) (UniProt Q01279); experiment: co-immunoprecipitation from iBMDM lysates (FIG. 9 panel D)
[4] = target: epidermal growth factor receptor (EGFR), mouse, endogenous in iBMDMs (mouse) (UniProt Q01279); experiment: co-immunoprecipitation from iBMDM lysates

binding [1]	binding [2]	binding [3]	binding [4]	Substance
binds	binds			anaplastic lymphoma kinase (ALK), human, endogenous in THP1 cells (from UniProt Q9UM73 19-1620) (receptor)
		binds	binds	anaplastic lymphoma kinase (ALK), mouse, endogenous in iBMDMs and RAW264.7 cells (from UniProt P97793 19-1621) (receptor)
